Assay results published in publication doi:10.1101/2021.12.22.473884.
Where a chain is given by its changes, count along the chain named. Names may count otherwise. Like-named read-outs stand apart in the source and are kept apart here. No constants are given. Whether binding was seen depends on the method and setting. Binding seen in cells or lysates may run through a third protein. Some binding calls cover weakened binding; strength is not graded here. For part of these data: Where a sequence is shown, tags or fusion partners need not be part of it. Blank lines part the entries; values can stand above or below the molecule they belong to.

The chains behind the UniProt entries cited, without tags or fusion partners. Where a name states a change or a piece, a line headed by the entry shows the natural chain unless it says otherwise.
UniProt Q9NQG6, whole entry: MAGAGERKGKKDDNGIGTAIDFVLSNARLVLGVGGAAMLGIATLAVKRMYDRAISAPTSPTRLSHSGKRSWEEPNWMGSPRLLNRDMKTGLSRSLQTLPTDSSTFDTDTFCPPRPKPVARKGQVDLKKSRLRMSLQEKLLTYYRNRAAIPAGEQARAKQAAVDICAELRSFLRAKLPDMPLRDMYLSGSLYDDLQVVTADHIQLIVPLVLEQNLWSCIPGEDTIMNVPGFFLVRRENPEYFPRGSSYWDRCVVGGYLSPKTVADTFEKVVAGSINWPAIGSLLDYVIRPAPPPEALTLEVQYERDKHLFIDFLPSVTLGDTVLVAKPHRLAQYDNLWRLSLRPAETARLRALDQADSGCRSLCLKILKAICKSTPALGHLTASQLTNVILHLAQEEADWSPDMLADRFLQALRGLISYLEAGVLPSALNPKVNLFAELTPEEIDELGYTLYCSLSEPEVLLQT

Columns and labels:
GST-PI31 [1] = molecular target: T1, GST-PI31 (UniProt Q92530); assay: pull-down
T1 sequence: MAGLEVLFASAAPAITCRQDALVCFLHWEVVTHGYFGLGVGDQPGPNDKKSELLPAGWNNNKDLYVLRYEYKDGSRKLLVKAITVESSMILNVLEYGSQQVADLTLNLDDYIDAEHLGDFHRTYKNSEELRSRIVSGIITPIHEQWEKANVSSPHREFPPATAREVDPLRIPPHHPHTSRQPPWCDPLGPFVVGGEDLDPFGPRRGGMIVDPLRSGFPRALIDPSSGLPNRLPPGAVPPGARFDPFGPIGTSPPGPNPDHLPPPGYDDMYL

Flag-Fbxo7 L250P (human) [2] = molecular target: T2, Flag-Fbxo7 L250P (human) (UniProt Q9Y3I1); assay: co-IP
T2 sequence: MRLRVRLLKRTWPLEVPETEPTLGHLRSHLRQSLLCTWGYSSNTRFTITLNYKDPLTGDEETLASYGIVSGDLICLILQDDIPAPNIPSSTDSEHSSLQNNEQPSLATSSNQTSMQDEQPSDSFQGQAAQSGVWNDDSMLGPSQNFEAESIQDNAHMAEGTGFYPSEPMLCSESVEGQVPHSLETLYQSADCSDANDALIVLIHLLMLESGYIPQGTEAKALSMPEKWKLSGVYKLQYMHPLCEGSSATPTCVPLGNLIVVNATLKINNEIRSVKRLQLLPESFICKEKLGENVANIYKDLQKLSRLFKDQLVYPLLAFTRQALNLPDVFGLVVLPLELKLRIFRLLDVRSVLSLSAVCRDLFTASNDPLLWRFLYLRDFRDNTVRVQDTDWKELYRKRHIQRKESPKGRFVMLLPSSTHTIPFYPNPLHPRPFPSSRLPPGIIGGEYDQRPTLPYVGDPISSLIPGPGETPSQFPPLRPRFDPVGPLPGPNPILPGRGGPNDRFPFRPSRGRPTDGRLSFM

Fbxo7 T22M (human) = molecular target: T3, Fbxo7 T22M (human) (UniProt Q9Y3I1); assay: co-IP
T3 sequence: T2 sequence with T22M, P250L

Fbxo7 R498X (human) = molecular target: T4, Fbxo7 R498X (human) (UniProt Q9Y3I1); assay: co-IP
T4 sequence: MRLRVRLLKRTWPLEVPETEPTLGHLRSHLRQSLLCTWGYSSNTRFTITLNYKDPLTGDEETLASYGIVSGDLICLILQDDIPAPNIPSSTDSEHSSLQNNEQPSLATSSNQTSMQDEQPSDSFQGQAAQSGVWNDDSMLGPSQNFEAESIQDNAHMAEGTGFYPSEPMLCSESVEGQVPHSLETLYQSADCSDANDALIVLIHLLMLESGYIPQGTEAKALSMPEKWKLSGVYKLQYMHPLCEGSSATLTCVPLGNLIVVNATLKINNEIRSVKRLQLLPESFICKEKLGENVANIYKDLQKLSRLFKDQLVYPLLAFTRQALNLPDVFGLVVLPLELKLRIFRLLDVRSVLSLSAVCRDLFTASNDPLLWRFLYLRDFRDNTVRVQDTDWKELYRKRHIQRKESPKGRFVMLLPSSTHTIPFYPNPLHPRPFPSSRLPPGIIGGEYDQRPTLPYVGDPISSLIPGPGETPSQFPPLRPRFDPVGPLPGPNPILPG

Flag-Fbxo7 WT (human) [3] = molecular target: T5, Flag-Fbxo7 WT (human) (UniProt Q9Y3I1); assay: co-IP
T5 sequence: T2 sequence with P250L

Fbxo7 R378G (human) = molecular target: T6, Fbxo7 R378G (human) (UniProt Q9Y3I1); assay: co-IP
T6 sequence: T2 sequence with P250L, R378G

[4] = molecular target: T7, FLAG-Fbxo7 (aa169-398) (human) (UniProt Q9Y3I1); assay: co-IP
T7 sequence: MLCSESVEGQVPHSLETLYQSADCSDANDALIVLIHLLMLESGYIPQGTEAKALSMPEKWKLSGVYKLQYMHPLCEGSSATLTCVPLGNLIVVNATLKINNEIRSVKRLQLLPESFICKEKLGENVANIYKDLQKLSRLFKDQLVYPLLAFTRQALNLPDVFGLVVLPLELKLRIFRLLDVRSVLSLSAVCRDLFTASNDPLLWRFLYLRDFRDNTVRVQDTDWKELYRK

GST-PI31 [5] = molecular target: T1, GST-PI31; assay: pull-down; remark: listed apart in the source
Flag-Fbxo7 L250P (human) [6] = molecular target: T2, Flag-Fbxo7 L250P (human); assay: co-IP; remark: listed apart in the source
Flag-Fbxo7 WT (human) [7] = molecular target: T5, Flag-Fbxo7 WT (human); assay: co-IP; remark: listed apart in the source

Molecule: MiD51-Myc (from UniProt Q9NQG6 1-463)
- binding (Flag-Fbxo7 L250P (human) [2]): binds
- binding (Fbxo7 T22M (human)): binds
- binding (Fbxo7 R498X (human)): binds
- binding (Flag-Fbxo7 WT (human) [3]): binds
- binding (Fbxo7 R378G (human)): binds
- binding [4]: binds

B1: MiD49 made using reticulocyte lysates (protein, UniProt Q96C03 1-454)
chain: MAEFSQKRGKRRSDEGLGSMVDFLLANARLVLGVGGAAVLGIATLAVKRFIDRATSPRDEDDTKADSWKELSLLKATPHLQPRPPPAALSQPVLPLAPSSSAPEGPAETDPEVTPQLSSPAPLCLTLQERLLAFERDRVTIPAAQVALAKQLAGDIALELQAYFRSKFPELPFGAFVPGGPLYDGLQAGAADHVRLLVPLVLEPGLWSLVPGVDTVARDPRCWAVRRTQLEFCPRGSSPWDRFLVGGYLSSRVLLELLRKALAASVNWPAIGSLLGCLIRPSMASEELLLEVQHERLELTVAVLVAVPGVDADDRLLLAWPLEGLAGNLWLQDLYPVEAARLRALDDHDAGTRRRLLLLLCAVCRGCSALGQLGRGHLTQVVLRLGEDNVDWTEEALGERFLQALELLIGSLEQASLPCHFNPSVNLFSSLREEEIDDIGYALYSGLQEPEGLL
- binding (GST-PI31 [5]): binds

B2: Flag-Fbxo7 WT (protein, UniProt Q9Y3I1-1 1-522)
chain: T2 sequence with P250L
- binding (Flag-Fbxo7 L250P (human) [6]): binds
- binding (Flag-Fbxo7 WT (human) [7]): binds

Results, then the molecule that gave them:

- binding (GST-PI31 [1]): binds
Molecule: MiD51 made using reticulocyte lysates (from UniProt Q9NQG6 1-463)

- binding (Flag-Fbxo7 L250P (human) [6]): binds
- binding (Flag-Fbxo7 WT (human) [7]): binds
B3: Flag-Fbxo7 L250P (protein, UniProt Q9Y3I1-1 1-522)
chain: T2 sequence
